# Experimental data: PubChem BioAssay AID1224828 (NIAID, 2016)
# Purpose: 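Knock-downs that increase or decrease LPS-induced p65 nuclear translocation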 (primary screen)
# System: mouse RAW264.7 G9 macrophage reporter cells (GFP-p65, Tnf promoter-mCherry)
# Reagents: siRNA pool against mouse genes, 100 nM
# Timing: 2 days siRNA transfection, then 40 min LPS before fixation
# Challenge: LPS (Salmonella minnesota R595) at 10 ng/ml
# Measurement: 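Microscopy ratio of nuclear to perinuclear-ring GFP-p65 signal, scaled to the plate median; gene score is the average of two replicate robust z-scores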
# Scale: p65 translocation robust z-score: higher = more nuclear NF-kappaB p65 after LPS than the plate median; nuclear/cytoplasmic p65 ratio: higher = more nuclear NF-kappaB p65
# Active means: 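Called active when z exceeds 3.3 or falls under -1.56 (median of Tlr4 controls), giving activity score of at least 50; no calls for control wells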
# Meaning of the calls: active = hit (p65 shift raised or lowered); inactive = no clear change
# Shown is one part, drawn at random, of about 17,000 reagents. Over the whole deposit, 762 (4.5%) got an active call. 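Active calls include both raised and lowered p65 entry, mostly lowered; wells with fewer than 50 cells lack a z-score.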 Raw values vary from plate to plate and are shown uncorrected.
gene knocked down,p65 translocation robust z-score,"nuclear/cytoplasmic p65 ratio, rep 1","nuclear/cytoplasmic p65 ratio, rep 2",low cell count flag,activity call
Ttc12 (tetratricopeptide repeat domain 12),,1.5,1.11,fewer than 50 cells per well; well left out of scoring,inactive
Or4c108 (olfactory receptor family 4 subfamily C member 108),0.7,1.77,1.68,enough cells to score,inactive
"Bpnt2 (3'(2'), 5'-bisphosphate nucleotidase 2)",-0.79,1.49,1.5,enough cells to score,inactive
Nedd4,-1.12,1.63,1.4,enough cells to score,inactive
Gucy2c (guanylate cyclase 2c),-1.23,1.49,1.22,enough cells to score,inactive
Tada3 (transcriptional adaptor 3),-0.12,1.52,1.49,enough cells to score,inactive
Gkap1 (G kinase anchoring protein 1),0.34,1.39,1.5,enough cells to score,inactive
"Nos2 (nitric oxide synthase 2, inducible)",-0.35,1.46,1.31,enough cells to score,inactive
Ccdc68 (coiled-coil domain containing 68),1.51,1.93,1.79,enough cells to score,inactive
Sgta,0.24,1.53,1.2,enough cells to score,inactive
Cachd1 (cache domain containing 1),0.85,1.77,1.91,enough cells to score,inactive
Actn2 (actinin alpha 2),-0.23,1.58,1.59,enough cells to score,inactive
"Cop1 (COP1, E3 ubiquitin ligase)",0.18,1.68,1.75,enough cells to score,inactive
Ergic2 (ERGIC and golgi 2),-0.76,1.3,1.31,enough cells to score,inactive
Ccnk (cyclin K),0.22,1.46,1.44,enough cells to score,inactive
Adam6a (a disintegrin and metallopeptidase domain 6A),0.52,1.69,1.76,enough cells to score,inactive
Sp2 (Sp2 transcription factor),0.02,1.51,1.6,enough cells to score,inactive
Reps1 (RalBP1 associated Eps domain containing protein),0.84,1.53,1.18,enough cells to score,inactive
"Mrgpra6 (MAS-related GPR, member A6)",0.44,1.77,1.73,enough cells to score,inactive
Tspear (thrombospondin type laminin G domain and EAR repeats),0.93,1.55,1.66,enough cells to score,inactive
Tbx6 (T-box 6),0.54,1.56,1.63,enough cells to score,inactive
"Btn2a2 (butyrophilin, subfamily 2, member A2)",-0.61,1.29,1.5,enough cells to score,inactive
Gtf2e1,-1.21,1.2,1.29,enough cells to score,inactive
Shox2 (SHOX homeobox 2),0.52,1.61,1.64,enough cells to score,inactive
Skint10 (selection and upkeep of intraepithelial T cells 10),-0.17,1.4,1.53,enough cells to score,inactive
Robo2 (roundabout guidance receptor 2),-0.67,1.33,1.12,enough cells to score,inactive
Jtb (jumping translocation breakpoint),-1.18,1.39,1.26,enough cells to score,inactive
Cdc37 (cell division cycle 37),1.28,1.72,1.47,enough cells to score,inactive
Pigyl,-1.03,1.27,1.28,enough cells to score,inactive
Togaram2 (TOG array regulator of axonemal microtubules 2),2.79,1.5,1.69,enough cells to score,inactive
Fbxw15 (F-box and WD-40 domain protein 15),-1.6,1.52,1.27,enough cells to score,active
Psapl1 (prosaposin-like 1),0.08,1.37,1.32,enough cells to score,inactive
Cbln2 (cerebellin 2 precursor protein),-1.8,1.34,1.47,enough cells to score,active
Or9q2 (olfactory receptor family 9 subfamily Q member 2),0.74,1.74,1.5,enough cells to score,inactive
"B4gat1 (beta-1,4-glucuronyltransferase 1)",0.95,1.62,1.63,enough cells to score,inactive
Asb10 (ankyrin repeat and SOCS box-containing 10),-0.35,1.57,1.44,enough cells to score,inactive
"Ppp1r16a (protein phosphatase 1, regulatory subunit 16A)",0.36,1.61,1.4,enough cells to score,inactive
Cd86 (CD86 antigen),-1.55,1.47,1.18,enough cells to score,inactive
C230013L11Rik (RIKEN cDNA C230013L11 gene),,1.24,1.33,fewer than 50 cells per well; well left out of scoring,inactive
Arhgap10 (Rho GTPase activating protein 10),1.07,1.7,1.72,enough cells to score,inactive
Trim59 (tripartite motif-containing 59),,1.27,2.08,fewer than 50 cells per well; well left out of scoring,inactive
Bahcc1 (BAH domain and coiled-coil containing 1),-0.66,1.34,1.3,enough cells to score,inactive
Tmem94 (transmembrane protein 94),,1.52,1.49,fewer than 50 cells per well; well left out of scoring,inactive
Magea13 (MAGE family member A13),,1.23,1.06,fewer than 50 cells per well; well left out of scoring,inactive
Otog (otogelin),1.33,1.51,1.49,enough cells to score,inactive
Defb35 (defensin beta 35),-1.88,1.23,1.35,enough cells to score,active
Tedc1 (tubulin epsilon and delta complex 1),,1.47,2.39,fewer than 50 cells per well; well left out of scoring,inactive
Khk (ketohexokinase),0.07,1.71,1.37,enough cells to score,inactive
Zfp354a (zinc finger protein 354A),-1.17,1.43,1.26,enough cells to score,inactive
Wac (WW domain containing adaptor with coiled-coil),0.77,1.47,1.33,enough cells to score,inactive
Zic1 (zinc finger protein of the cerebellum 1),0.51,1.67,1.6,enough cells to score,inactive
Adam19 (ADAM metallopeptidase domain 19),-0.52,1.4,1.74,enough cells to score,inactive
"Polg (polymerase (DNA directed), gamma)",-0.94,1.35,1.3,enough cells to score,inactive
Prune2 (prune homolog 2),0,1.37,1.54,enough cells to score,inactive
Zfp106 (zinc finger protein 106),-0.6,1.36,1.16,enough cells to score,inactive
Pln (phospholamban),-0.11,1.34,1.23,enough cells to score,inactive
"Higd2a (HIG1 domain family, member 2A)",-0.17,1.34,1.36,enough cells to score,inactive
Clic1 (chloride intracellular channel 1),-0.91,1.49,1.6,enough cells to score,inactive
Cks2 (CDC28 protein kinase regulatory subunit 2),0.41,1.92,1.3,enough cells to score,inactive
